Measurements reported in PMC9233167.
For at least one entry, the source does not settle the construct or the ends of the probe. For some assays here: No signal at the amounts used counts as a negative. For some assays here: At least one verdict was read from the data and is not stated in words by the source.

Experiments:
[1] = system: TmMYB39 (GST-TmMYB39) (Taxus media); assay: EMSA; settings: EMSA with Beyotime GS009 kit per manufacturer; competitors 20x and 200x; pH and temperature not stated; recombinant protein; label: 5' 6-FAM (labeled probe), unlabeled as cold probe
[2] = system: TmMYB39 (GST-TmMYB39) (Taxus media); assay: competition with a labelled probe; settings: EMSA with Beyotime GS009 kit per manufacturer, competitors 20x and 200x, pH and temperature not stated, recombinant protein

Sequence	binding result [1]	further results
TTCACTTTTTGGTTAATTACACCT (double strand) [T13OH probe]	binds	
TTTTTTTGTTGGTTAGATTAATTG (double strand) [pGGPPS probe]	binds	
CTATTTCTGCAGTTATAGTTTTGG (double strand) [pTBT probe]	binds	
TTTTTTTGTCCCGGGGATTAATTG (double strand) [pGGPPS mutant cold probe]		binding result ([2]; excess unlabeled mutant vs labeled N1): no binding
CTATTTCTGCCCGGGTAGTTTTGG (double strand) [pTBT mutant cold probe]		binding result ([2]; excess unlabeled mutant vs labeled N7): no binding
TTCACTTTTCCCGGGATTACACCT (double strand) [T13OH mutant cold probe]		binding result ([2]; excess unlabeled mutant vs labeled N3): no binding
TGGATCTATCCCGGGTCGTTTGCA (double strand) [T10OH mutant cold probe]		binding result ([2]; excess unlabeled mutant vs labeled N5): no binding
TGGATCTATTGGTTGTCGTTTGCA (double strand) [T10OH probe]	binds	
